Source: US10329476B2, “Non-regulated synthetic acid compositions for use as alternatives to conventional acids in the oil and gas industry” (FLUID ENERGY GROUP LTD., priority 2015, dated 2019)

Legend:
[1] = Corrosion testing on N80 coupons, MSA-Urea vs Example 1; conditions: 90° C., 50% concentration
[2] = Corrosion testing on Chrome 13 coupons; conditions: 55° C., 72 hours
[3] = Corrosion testing on chromed stainless steel coupons; conditions: 55° C., 72 hours

SMILES | Corrosion Mils/yr ([1]; run time 6 hours) [Mils/yr] | Corrosion lb/ft^2 ([1]; run time 6 hours) [lb/ft^2] | Corrosion mm/year ([1]; run time 6 hours) [mm/year] | Loss wt. ([1]; run time 6 hours) [g] | Corrosion Mils/yr ([1]; run time 24 hours) [Mils/yr] | Corrosion lb/ft^2 ([1]; run time 24 hours) [lb/ft^2] | Corrosion mm/year ([1]; run time 24 hours) [mm/year] | Loss wt. ([1]; run time 24 hours) [g] | Corrosion Lb/ft2 [2] [Lb/ft2] | Loss weight [2] [g] | Corrosion Lb/ft2 [3] [Lb/ft2] | Loss weight [3] [g]
CS(=O)(=O)O [MSA-No Urea, Methanesulphonic acid] | 13348.09 | 0.374 | 339.041 | 5.279 | 3435.63 | 0.385 | 87.265 | 5.435 |  |  |  | 
CS(=O)(=O)O [MSA (70%), Methanesulfonic acid] |  |  |  |  |  |  |  |  | 0.035 | 0.534 | 0.043 | 0.693
